Measurements reported in PubChem BioAssay AID1224830 (NIAID, 2016).

Screen: 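Regulators of TLR4 signalling towards TNF-alpha in macrophage-like cells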 (primary screen)
Cells: human THP-1 monocytic leukaemia cells, TNF dual-luciferase reporter clone, PMA-differentiated to macrophage-like cells
Reagents: siRNA pool against human genes, 50 nM
Time to read-out: LPS for 4 h, given about 3 days after siRNA transfection
Treatment: bacterial LPS (TLR4 ligand), 10 ng/ml
Detection: 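Ratio of firefly to renilla light, scaled to the plate median and expressed as a robust z-score per replicate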
Scale: TNF reporter robust z-score: higher = stronger TNF reporter response to LPS
Call rule: 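Each well counts as active if its z-score is over 2.8 or under -1.5; controls are left without a call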
The deposit covers about 18,000 reagents; shown is an unselected part. About 2,900 of all reagents (16%) count as active. 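Calls are made per well; low scores hint the gene aids the LPS response, high scores that it dampens it.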 Repeated entries: four replicate wells of each siRNA pool.

gene knocked down | PubChem SID | TNF reporter robust z-score | Call
MTR (5-methyltetrahydrofolate-homocysteine methyltransferase) | SID315450074 | -0.58 | inactive
MTR (5-methyltetrahydrofolate-homocysteine methyltransferase) | SID315450074 | -0.54 | inactive
MTR (5-methyltetrahydrofolate-homocysteine methyltransferase) | SID315450074 | -0.37 | inactive
MTR (5-methyltetrahydrofolate-homocysteine methyltransferase) | SID315450074 | -0.7 | inactive
PIANP (PILR alpha associated neural protein) | SID315462971 | 0.55 | inactive
PIANP (PILR alpha associated neural protein) | SID315462971 | 1.29 | inactive
PIANP (PILR alpha associated neural protein) | SID315462971 | -0.52 | inactive
PIANP (PILR alpha associated neural protein) | SID315462971 | 0.15 | inactive
OR51B2 (olfactory receptor family 51 subfamily B member 2) | SID315459269 | -0.8 | inactive
OR51B2 (olfactory receptor family 51 subfamily B member 2) | SID315459269 | -1.49 | inactive
OR51B2 (olfactory receptor family 51 subfamily B member 2) | SID315459269 | -0.76 | inactive
OR51B2 (olfactory receptor family 51 subfamily B member 2) | SID315459269 | -0.65 | inactive
ST6GAL2 (ST6 beta-galactoside alpha-2,6-sialyltransferase 2) | SID315460420 | -0.82 | inactive
ST6GAL2 (ST6 beta-galactoside alpha-2,6-sialyltransferase 2) | SID315460420 | -0.2 | inactive
ST6GAL2 (ST6 beta-galactoside alpha-2,6-sialyltransferase 2) | SID315460420 | -0.06 | inactive
ST6GAL2 (ST6 beta-galactoside alpha-2,6-sialyltransferase 2) | SID315460420 | -0.27 | inactive
ZNF708 (zinc finger protein 708) | SID315452198 | -0.21 | inactive
ZNF708 (zinc finger protein 708) | SID315452198 | 1.17 | inactive
ZNF708 (zinc finger protein 708) | SID315452198 | 0.98 | inactive
ZNF708 (zinc finger protein 708) | SID315452198 | 2.6 | inactive
STK11IP (serine/threonine kinase 11 interacting protein) | SID315461241 | -0.91 | inactive
STK11IP (serine/threonine kinase 11 interacting protein) | SID315461241 | -0.4 | inactive
STK11IP (serine/threonine kinase 11 interacting protein) | SID315461241 | -0.52 | inactive
STK11IP (serine/threonine kinase 11 interacting protein) | SID315461241 | -0.24 | inactive
TRIAP1 (TP53 regulated inhibitor of apoptosis 1) | SID315456743 | -0.7 | inactive
TRIAP1 (TP53 regulated inhibitor of apoptosis 1) | SID315456743 | -0.2 | inactive
TRIAP1 (TP53 regulated inhibitor of apoptosis 1) | SID315456743 | -0.3 | inactive
TRIAP1 (TP53 regulated inhibitor of apoptosis 1) | SID315456743 | -0.62 | inactive
HOXB7 (homeobox B7) | SID315449282 | 0.38 | inactive
HOXB7 (homeobox B7) | SID315449282 | -0.05 | inactive
HOXB7 (homeobox B7) | SID315449282 | 0.33 | inactive
HOXB7 (homeobox B7) | SID315449282 | 0 | inactive
SMC6 (structural maintenance of chromosomes 6) | SID315459377 | 1.42 | inactive
SMC6 (structural maintenance of chromosomes 6) | SID315459377 | 1.3 | inactive
SMC6 (structural maintenance of chromosomes 6) | SID315459377 | 0.28 | inactive
SMC6 (structural maintenance of chromosomes 6) | SID315459377 | 0.6 | inactive
TAMM41 | SID315461909 | 1.19 | inactive
TAMM41 | SID315461909 | 0.2 | inactive
TAMM41 | SID315461909 | 1.05 | inactive
TAMM41 | SID315461909 | 0.06 | inactive
MAP3K2 (mitogen-activated protein kinase kinase kinase 2) | SID315454332 | -0.75 | inactive
MAP3K2 (mitogen-activated protein kinase kinase kinase 2) | SID315454332 | -0.84 | inactive
MAP3K2 (mitogen-activated protein kinase kinase kinase 2) | SID315454332 | -0.8 | inactive
MAP3K2 (mitogen-activated protein kinase kinase kinase 2) | SID315454332 | -1 | inactive
ORC2 (origin recognition complex subunit 2) | SID315450372 | -0.16 | inactive
ORC2 (origin recognition complex subunit 2) | SID315450372 | 0.74 | inactive
ORC2 (origin recognition complex subunit 2) | SID315450372 | 0.42 | inactive
ORC2 (origin recognition complex subunit 2) | SID315450372 | 1.51 | inactive
BAGE4 (BAGE family member 4) | SID315460660 | 1.66 | inactive
BAGE4 (BAGE family member 4) | SID315460660 | 1.44 | inactive
BAGE4 (BAGE family member 4) | SID315460660 | 1.29 | inactive
BAGE4 (BAGE family member 4) | SID315460660 | 1.7 | inactive
BHLHA15 (basic helix-loop-helix family member a15) | SID315462872 | -0.65 | inactive
BHLHA15 (basic helix-loop-helix family member a15) | SID315462872 | 0.41 | inactive
BHLHA15 (basic helix-loop-helix family member a15) | SID315462872 | 0.29 | inactive
BHLHA15 (basic helix-loop-helix family member a15) | SID315462872 | 0.82 | inactive
PF4 (platelet factor 4) | SID315450521 | -0.85 | inactive
PF4 (platelet factor 4) | SID315450521 | -0.39 | inactive
PF4 (platelet factor 4) | SID315450521 | -0.94 | inactive
PF4 (platelet factor 4) | SID315450521 | -0.83 | inactive
PARP11 (poly(ADP-ribose) polymerase family member 11) | SID315458256 | 1.05 | inactive
PARP11 (poly(ADP-ribose) polymerase family member 11) | SID315458256 | 1.54 | inactive
PARP11 (poly(ADP-ribose) polymerase family member 11) | SID315458256 | 0.74 | inactive
PARP11 (poly(ADP-ribose) polymerase family member 11) | SID315458256 | -0.06 | inactive
METAP2 (methionyl aminopeptidase 2) | SID315454513 | 1.04 | inactive
METAP2 (methionyl aminopeptidase 2) | SID315454513 | 1.26 | inactive
METAP2 (methionyl aminopeptidase 2) | SID315454513 | 2.03 | inactive
METAP2 (methionyl aminopeptidase 2) | SID315454513 | 0.56 | inactive
MRPS34 (mitochondrial ribosomal protein S34) | SID315459124 | 1.33 | inactive
MRPS34 (mitochondrial ribosomal protein S34) | SID315459124 | 1.26 | inactive
MRPS34 (mitochondrial ribosomal protein S34) | SID315459124 | 1.17 | inactive
MRPS34 (mitochondrial ribosomal protein S34) | SID315459124 | 1.16 | inactive
HOXD9 (homeobox D9) | SID315449298 | -0.67 | inactive
HOXD9 (homeobox D9) | SID315449298 | -0.32 | inactive
HOXD9 (homeobox D9) | SID315449298 | -1.1 | inactive
HOXD9 (homeobox D9) | SID315449298 | 0.2 | inactive
DSG4 (desmoglein 4) | SID315462326 | 1.86 | inactive
DSG4 (desmoglein 4) | SID315462326 | 1.96 | inactive
DSG4 (desmoglein 4) | SID315462326 | -0.27 | inactive
DSG4 (desmoglein 4) | SID315462326 | -0.35 | inactive
USP8 (ubiquitin specific peptidase 8) | SID315453044 | -0.53 | inactive
USP8 (ubiquitin specific peptidase 8) | SID315453044 | 2.02 | inactive
USP8 (ubiquitin specific peptidase 8) | SID315453044 | -0.05 | inactive
USP8 (ubiquitin specific peptidase 8) | SID315453044 | 0.79 | inactive
HAGH (hydroxyacylglutathione hydrolase) | SID315449146 | 1.16 | inactive
HAGH (hydroxyacylglutathione hydrolase) | SID315449146 | 4.19 | active
HAGH (hydroxyacylglutathione hydrolase) | SID315449146 | 3.57 | active
HAGH (hydroxyacylglutathione hydrolase) | SID315449146 | 2.65 | inactive
SLC7A4 | SID315451482 | 1.57 | inactive
SLC7A4 | SID315451482 | 1.76 | inactive
SLC7A4 | SID315451482 | 2.28 | inactive
SLC7A4 | SID315451482 | 1.71 | inactive
PCBD1 (pterin-4 alpha-carbinolamine dehydratase 1) | SID315450440 | 3.33 | active
PCBD1 (pterin-4 alpha-carbinolamine dehydratase 1) | SID315450440 | 0.63 | inactive
PCBD1 (pterin-4 alpha-carbinolamine dehydratase 1) | SID315450440 | 0.64 | inactive
PCBD1 (pterin-4 alpha-carbinolamine dehydratase 1) | SID315450440 | 0.33 | inactive
ACHE (acetylcholinesterase (Yt blood group)) | SID315447149 | -0.31 | inactive
ACHE (acetylcholinesterase (Yt blood group)) | SID315447149 | 0.83 | inactive
ACHE (acetylcholinesterase (Yt blood group)) | SID315447149 | 1.15 | inactive
ACHE (acetylcholinesterase (Yt blood group)) | SID315447149 | 0.72 | inactive
SPAG17 (sperm associated antigen 17) | SID315463025 | 0.14 | inactive
SPAG17 (sperm associated antigen 17) | SID315463025 | 1.36 | inactive
SPAG17 (sperm associated antigen 17) | SID315463025 | 1.15 | inactive
SPAG17 (sperm associated antigen 17) | SID315463025 | 1.03 | inactive
EVA1A (eva-1 homolog A, regulator of programmed cell death) | SID315460209 | -0.22 | inactive
EVA1A (eva-1 homolog A, regulator of programmed cell death) | SID315460209 | -0.79 | inactive
EVA1A (eva-1 homolog A, regulator of programmed cell death) | SID315460209 | -0.3 | inactive
SLC12A8 | SID315460410 | -0.95 | inactive
SLC12A8 | SID315460410 | -1.43 | inactive
SLC12A8 | SID315460410 | -1.13 | inactive
SLC12A8 | SID315460410 | -0.64 | inactive
